Measured values: PubChem BioAssay AID328 (DTP/NCI, 2004)
The list does not hold the whole screen: it gathers tests that were run many times, whatever their T/C, doses with no T/C, and many T/C values between a quarter and a half above the control. Further doses and runs are listed elsewhere. T/C is the treated group as % of the vehicle group. Some entries give survivors of the animals treated and no T/C: the source files T/C as zero there, which appears to mark a toxic dose or a test without result, not a measured value. Some survivor counts are full or nearly so, which does not show that the dose was tolerated: the source hardly ever lists a survival T/C far under the control, and the zero likely stands for such cases as well. Survivors were counted at the toxicity check, usually on the fifth day, unless a day is given; later deaths do not show. Schedules are NCI's codes, read here as Q, the interval in days (D) or hours (H), X, the number of doses. Some entries were tested several times; their values stand side by side, smallest first. For survival time, the PubChem record calls one and a half times the control and up active, and a quarter to a half above the control has no call in these data; cut-offs in other NCI protocols can differ. Some T/C values are followed by the survivors on the day toxicity was checked, most often the fifth; without a count, all were alive then. Positions of bridges follow the written chain, without caps; N, C: chain ends. Non-standard residues stand in square brackets, D forms with d. Residues, ends and D or L forms follow the SMILES beside them. Chains are numbered I, II in the order given. *: point of attachment. Quinoxaline2carbonyl = O=C(c1cnc2ccccc2n1)*; NMeV = CN[CH](C(=O)O)C(C)C; NMeC = CN[CH](CS)C(=O)O

Tested on: BDF1 mice, P388 leukemia ip, median survival T/C
Test: NCI In Vivo Anticancer Drug Screen. Data for tumor model P388 Leukemia (intraperitoneal) in B6D2F1 (BDF1) mice
Conditions: T/C endpoint: median survival time, higher T/C = longer survival
Procedure, shortened: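 Mice carrying the transplantable tumour receive compound or vehicle. Survival is followed in each arm, and the treated measure is divided by the vehicle measure.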

[1] = dose: 50.0 mg/kg/injection, schedule: Q01DX009 (ip), vehicle: saline with Tween-80
[2] = dose: 100.0 mg/kg/injection, schedule: Q01DX009 (ip), vehicle: saline with Tween-80
[3] = dose: 200.0 mg/kg/injection, schedule: Q01DX009 (ip), vehicle: saline with Tween-80
[4] = dose: 200.0 mg/kg/injection, schedule: Q01DX009 (ip), vehicle: saline

CC(C)=CCC1=C(OC2OC(CO)C(O)C(O)C2O)C(=O)c2ccccc2C1=O (stereo not given)
T/C (dose: 6.25 mg/kg/injection, schedule: Q01DX009 (ip), vehicle: saline with Tween-80): 140 % of control | T/C (dose: 12.5 mg/kg/injection, schedule: Q01DX009 (ip), vehicle: saline with Tween-80): 133 % of control | survivor count [1]: 4 of 6 | survivor count [2]: 1 of 6 | survivor count [3]: 0 of 6

CN(C)CC/C=C1\c2ccccc2Sc2ccc(C(F)(F)F)cc21
T/C (dose: 14.0 mg/kg/injection, schedule: Q04DX003 (ip), vehicle: saline): 125 and 131 % of control | T/C (dose: 21.0 mg/kg/injection, schedule: Q04DX003 (ip), vehicle: saline): 145 % of control | T/C (dose: 43.3 mg/kg/injection, schedule: Q01DX001 (ip), vehicle: saline): 136 % of control | survivor count (dose: 45.0 mg/kg/injection, schedule: Q04DX003 (ip), vehicle: saline): 4 of 6 | survivor count (dose: 65.0 mg/kg/injection, schedule: Q04DX003 (ip), vehicle: saline): 4 of 6 | survivor count (dose: 97.5 mg/kg/injection, schedule: Q01DX001 (ip), vehicle: saline): 5 of 6

CC1NC(=O)C(NC(=O)c2cnc3ccccc3n2)COC(=O)C(C(C)C)N(C)C(=O)C2CSSCC(C(=O)N(C)C(C(C)C)C(=O)OCC(NC(=O)c3cnc4ccccc4n3)C(=O)NC(C)C(=O)N2C)N(C)C1=O (stereo not given) (I: Quinoxaline2carbonyl-SA[NMeC][NMeV] / II: Quinoxaline2carbonyl-SA[NMeC][NMeV]; ester I:1-II:C, I:C-II:1; disulfide I:3-II:3; configuration not given here)
T/C (dose: 6.0 micrograms/kg/injection, schedule: Q01DX009 (ip), vehicle: saline): 147 % of control

COc1cc(NS(C)(=O)=O)ccc1Nc1c2ccc([N+](=O)[O-])cc2nc2c(C)cccc12
T/C (dose: 0.42 mg/kg/injection, schedule: Q04DX003 (ip), vehicle: saline with Tween-80): 129 % of control | T/C (dose: 0.86 mg/kg/injection, schedule: Q04DX003 (ip), vehicle: saline with Tween-80): 137 % of control

C=C(C)C(=O)O[C@@H]1C[C@@]2(C)O[C@@H]2C[C@H](O)/C(C)=C/[C@H]2OC(=O)C(=C)[C@@H]21
T/C (dose: 24.0 mg/kg/injection, schedule: Q01DX009 (ip), vehicle: saline + alcohol): 127 % of control

COC(=O)C1C(O)CCC2CN3CCc4c([nH]c5ccccc45)C3CC21 (stereo not given)
T/C [3]: 140 % of control [4 of 6 alive]

COc1ccc(OC)c(Br)c1
T/C (dose: 400.0 mg/kg/injection, schedule: Q01DX009 (ip), vehicle: saline with Tween-80): 140 % of control

CCCCCCCCCCCCOc1ccccc1C=O
T/C (dose: 400.0 mg/kg/injection, schedule: Q04DX003 (ip), vehicle: saline sonified): 131 % of control

COc1cccc2c1C(=O)c1c(O)c3c(c(O)c1C2=O)CC(O)(/C(C)=N/NC(=O)CCCCCCC(=O)N/N=C(\C)C1(O)Cc2c(O)c4c(c(O)c2C(OC2CC(N)C(O)C(C)O2)C1)C(=O)c1c(OC)cccc1C4=O)CC3OC1CC(N)C(O)C(C)O1 (stereo not given)
T/C (dose: 8.0 mg/kg/injection, schedule: Q01DX009 (ip), vehicle: water): 149 % of control | survivor count (dose: 16.0 mg/kg/injection, schedule: Q01DX009 (ip), vehicle: water): 6 of 6 | survivor count (dose: 32.0 mg/kg/injection, schedule: Q01DX009 (ip), vehicle: water): 6 of 6

O=S(=O)(O)c1ccc(/C2=c3\cc/c([n-]3)=C(\c3ccc(S(=O)(=O)O)cc3)c3ccc([n-]3)/C(c3ccc(S(=O)(=O)O)cc3)=c3/cc/c([n-]3)=C(\c3ccc(S(=O)(=O)O)cc3)c3ccc2[n-]3)cc1.[Zn]
T/C (dose: 31.25 mg/kg/injection, schedule: Q01DX009 (ip), vehicle: saline with Tween-80): 132 % of control | survivor count (dose: 125.0 mg/kg/injection, schedule: Q01DX009 (ip), vehicle: saline with Tween-80): 6 of 6 | survivor count (dose: 250.0 mg/kg/injection, schedule: Q01DX009 (ip), vehicle: saline with Tween-80): 0 of 6

CCCCCCCCCCCC[N+](C)(C)CCC[N+](C)(C)CCCCCCCCCCCC
survivor count (dose: 25.0 mg/kg/injection, schedule: Q01DX009 (ip), vehicle: saline): 0 of 6 | survivor count [1]: 1 of 6 | survivor count [2]: 0 of 6 | survivor count [3]: 0 of 6

COc1c(Br)cc(/C=C(/C)[N+](=O)[O-])cc1Br
survivor count (dose: 400.0 mg/kg/injection, schedule: Q04DX003 (ip), vehicle: saline with Tween-80): 5 of 6

C=C1C(C2(C)C(OC(C)=O)CC(=O)OC(C)(COC(C)=O)C2CC(=O)OC)C(OC=O)C(OC(=O)C(O)C(C)CC)C2(C)C(c3ccoc3)CC(=O)C12O (stereo not given)
survivor count (dose: 15.0 mg/kg/injection, schedule: Q01DX009 (ip), vehicle: Klucel (hydroxypropylcellulose) (HPC)): 5 of 6

C/C=C(/C)C(=O)O[C@H]1CC[N+]2([O-])CC=C(COC(=O)[C@@](O)([C@H](C)OC)C(C)(C)O)[C@H]12 (stereo not given in full)
survivor count (dose: 6.25 mg/kg/injection, schedule: Q01DX010 (ip), vehicle: saline): 6 of 6 | survivor count (dose: 12.5 mg/kg/injection, schedule: Q01DX010 (ip), vehicle: saline): 6 of 6 | survivor count (dose: 25.0 mg/kg/injection, schedule: Q01DX010 (ip), vehicle: saline): 6 of 6 | T/C (dose: 160.0 mg/kg/injection, schedule: Q01DX010 (ip), vehicle: saline): 127 % of control

COc1cc(O)c2c(c1)C(=O)c1cc3c(c(O)c1C2=O)C(OC1OC(C)C(O)C(O)C1OC)C(OC)C(C)(O)C3=O (stereo not given)
T/C (dose: 37.5 mg/kg/injection, schedule: Q01DX010 (ip), vehicle: saline): 130 % of control | T/C (dose: 72.0 mg/kg/injection, schedule: Q01DX009 (ip), vehicle: Klucel (hydroxypropylcellulose) (HPC)): 132 % of control | T/C (dose: 75.0 mg/kg/injection, schedule: Q01DX010 (ip), vehicle: saline): 130 % of control | survivor count (dose: 150.0 mg/kg/injection, schedule: Q01DX010 (ip), vehicle: carboxymethylcellulose (CMC)): 6 of 6 | survivor count (dose: 300.0 mg/kg/injection, schedule: Q01DX010 (ip), vehicle: carboxymethylcellulose (CMC)): 4 of 6 | survivor count (dose: 300.0 mg/kg/injection, schedule: Q01DX010 (ip), vehicle: saline): 2 of 6 and 3 of 6

Cc1c2c(cc3c1[nH]c1ccccc13)C(c1ccc(Cl)cc1)=NCC2
survivor count (dose: 200.0 mg/kg/injection, schedule: Q01DX009 (ip), vehicle: Klucel (hydroxypropylcellulose) (HPC)): 6 of 6 | survivor count (dose: 400.0 mg/kg/injection, schedule: Q01DX009 (ip), vehicle: Klucel (hydroxypropylcellulose) (HPC)): 3 of 6

O=C1C=C(C2OC(CO)C(O)C2O)C(=O)N1 (stereo not given)
T/C (dose: 1.0 mg/kg/injection, schedule: Q01DX010 (ip), vehicle: saline): 130 % of control | T/C (dose: 1.5 mg/kg/injection, schedule: Q01DX001 (ip), vehicle: saline): 130 % of control | T/C (dose: 2.0 mg/kg/injection, schedule: Q01DX010 (ip), vehicle: saline): 145 and 147 % of control | survivor count (dose: 16.0 mg/kg/injection, schedule: Q01DX010 (ip), vehicle: saline): 3 of 6 and 5 of 6 | survivor count (dose: 25.0 mg/kg/injection, schedule: Q01DX001 (ip), vehicle: saline): 0 of 6 | survivor count (dose: 32.0 mg/kg/injection, schedule: Q01DX010 (ip), vehicle: saline): 0 of 6 | survivor count (dose: 50.0 mg/kg/injection, schedule: Q01DX001 (ip), vehicle: saline): 0 of 6 | survivor count (dose: 100.0 mg/kg/injection, schedule: Q01DX001 (ip), vehicle: saline): 0 of 6 | survivor count (dose: 200.0 mg/kg/injection, schedule: Q01DX001 (ip), vehicle: saline): 0 of 6

O=C(N1CCCC1)C(F)(F)C(F)(F)C(F)(F)F
survivor count [3]: 6 of 6

Clc1nc2ccccc2n2nnnc12
survivor count (dose: 50.0 mg/kg/injection, schedule: Q01DX009 (ip), vehicle: saline): 5 of 7

CC(C)N1c2c(nc(N)[nH]c2=O)NCC1CNc1ccc(C(=O)NC(CCC(=O)O)C(=O)O)cc1 (stereo not given)
T/C [4]: 127 % of control

CCN(CC)CCCCCNc1cc(OC)cc2c(C)ccnc12
survivor count [4]: 0 of 6
